Results published in patent US20130296436A1, “AMIDINE COMPOUNDS AND USE THEREOF FOR PLANT DISEASE CONTROL” (SUMITOMO CHEMICAL COMPANY, LIMITED, priority 2010, published 2013).
Some entries share one result that the patent states for a list of compounds.

Assays:
Format in all cases: in vivo
[1] = tested on: leaf rust (Puccinia recondita); assay: Test Example 3: wheat leaf rust, foliar application 5 days before inoculation; conditions: wheat (Shirogane), 200 ppm foliar application, inoculated 5 days later, 1 day dark + 8 days
[2] = tested on: leaf rust (Puccinia recondita); assay: Test Example 9: wheat leaf rust, foliar application after inoculation, 50 ppm; conditions: wheat (Shirogane), 50 ppm foliar application one day after inoculation, 7 days
[3] = tested on: blast fungus (Magnaporthe grisea); conditions: rice (Nihonbare), 200 ppm foliar application, then grown 6 days in contact with infected seedling
[4] = tested on: powdery mildew (Sphaerotheca fuliginea); assay: Test Example 7: cucumber powdery mildew, foliar application before inoculation, 50 ppm; conditions: cucumber (Sagamihanjiro), 50 ppm foliar application, then inoculated, 11 days
[5] = tested on: leaf rust (Puccinia recondita); assay: Test Example 2: wheat leaf rust, foliar application after inoculation, 200 ppm; conditions: wheat (Shirogane), 200 ppm foliar application one day after inoculation, 7 days
[6] = tested on: powdery mildew (Sphaerotheca fuliginea); assay: Test Example 4: cucumber powdery mildew, foliar application before inoculation, 200 ppm; conditions: cucumber (Sagamihanjiro), 200 ppm foliar application, then inoculated, 11 days

Structure (SMILES)	area of lesions on the treated plant relative to the area of lesions on an untreated plant [1] [%]	other results
CCN(C)/C=N/c1cc(C)c(OCC(F)(F)CC)cc1C [present compound 16]	≤ 30	
CCN(C)/C=N/c1cc(C)c(OCC(F)(F)C(F)(F)C(F)(F)C(F)(F)C(F)(F)F)cc1C [present compound 7]		area of lesions on the treated plant relative to the area of lesions on an untreated plant [2]: ≤ 30%
Cc1cc(OCC(F)(F)CC(C)(C)C)c(C)cc1/N=C/N(C)C1CC1 [present compound 22]	≤ 30	area of lesions on the treated plant relative to the area of lesions on an untreated plant [3]: ≤ 30%
CCN(C)/C=N/c1cc(C)c(OCCCCCC(F)(F)F)cc1C [present compound 14]	≤ 30	
Cc1cc(OCC(F)(F)CC(C)(C)C)c(C)cc1/N=C/N(C)C1CCCCC1 [present compound 24]	≤ 30	
CCN(C)/C=N/c1cc(C)c(OCC(F)(F)C(F)(F)C(F)(F)C(F)(F)F)cc1C [present compound 6]		area of lesions on the treated plant relative to the area of lesions on an untreated plant [2]: ≤ 30%; area of lesions on the treated plant relative to the area of lesions on an untreated plant [4]: ≤ 30%
CCN(C)/C=N/c1cc(C)c(OCC(F)(F)C(F)C(F)(F)F)cc1C (stereo not drawn) [present compound 1]	≤ 30	area of lesions on the treated plant relative to the area of lesions on an untreated plant [3]: ≤ 30%; area of lesions on the treated plant relative to the area of lesions on an untreated plant [5]: ≤ 30%
Cc1cc(OCC(F)(F)CC(C)(C)C)c(C)cc1/N=C/N(C)C(C)C [present compound 21]	≤ 30	
CCN(C)/C=N/c1cc(C)c(OCC(F)(F)CC(C)C)cc1C [present compound 17]	≤ 30	
CCN(C)/C=N/c1cc(C)c(OCCCC(F)(F)F)cc1C [present compound 13]	≤ 30	
Cc1cc(OCC(F)(F)CC(C)(C)C)c(C)cc1/N=C/N(C)C1CCCC1 [present compound 23]	≤ 30	
Cc1cc(OCC(F)(F)CC(C)(C)C)c(C)cc1/N=C/N(C)C1CCC1 [present compound 25]	≤ 30	
CCN(C)/C=N/c1cc(C)c(OCC(F)(F)C(F)(F)C(F)(F)F)cc1C [present compound 5]	≤ 30	area of lesions on the treated plant relative to the area of lesions on an untreated plant [6]: ≤ 30%
CCN(C)/C=N/c1cc(C)c(OCC(F)(F)C(F)(F)F)cc1C [present compound 4]	≤ 30	
CCCN(C)/C=N/c1cc(C)c(OCC(F)(F)CC(C)(C)C)cc1C [present compound 20]	≤ 30	
CCN(C)/C=N/c1cc(C)c(OCC(F)(F)C(F)(F)C(F)(F)C(F)(F)C(F)(F)C(F)(F)C(F)(F)C(F)(F)C(F)(F)C(F)(F)F)cc1C [present compound 12]	≤ 30	
CCN(C)/C=N/c1cc(C)c(OCC(F)(F)F)cc1C [present compound 3]	≤ 30	
CCN(C)/C=N/c1cc(C)c(OCC(F)(F)C(F)(F)C(F)(F)C(F)(F)C(F)(F)C(F)(F)F)cc1C [present compound 8]	≤ 30	
CCN(C)/C=N/c1cc(C)c(OCC(F)(F)C(F)F)cc1C [present compound 2]	≤ 30	area of lesions on the treated plant relative to the area of lesions on an untreated plant [5]: ≤ 30%
CCN(C)/C=N/c1cc(C)c(OCC(F)(F)CC(C)(C)C)cc1C [present compound 15]	≤ 30	area of lesions on the treated plant relative to the area of lesions on an untreated plant [3]: ≤ 30%
CCN(C)/C=N/c1cc(C)c(OC/C(F)=C/C(C)(C)C)cc1C [present compound 26]	≤ 30	
CCN(/C=N/c1cc(C)c(OCC(F)(F)CC(C)(C)C)cc1C)CC [present compound 18]	≤ 30	
Cc1cc(OCC(F)(F)CC(C)(C)C)c(C)cc1/N=C/N(C)C [present compound 19]	≤ 30	
